Paper PMC3095777
No signal at the amounts used counts as a negative. At least one verdict rests on a figure or table, not on a statement of the authors. For some of these results: Protein sequences can lack the tags named with them.

Sequences of proteins named here, by UniProt entry; tags and fusion partners are left off. Residues count along the entry.
UniProt P02769, 25-607: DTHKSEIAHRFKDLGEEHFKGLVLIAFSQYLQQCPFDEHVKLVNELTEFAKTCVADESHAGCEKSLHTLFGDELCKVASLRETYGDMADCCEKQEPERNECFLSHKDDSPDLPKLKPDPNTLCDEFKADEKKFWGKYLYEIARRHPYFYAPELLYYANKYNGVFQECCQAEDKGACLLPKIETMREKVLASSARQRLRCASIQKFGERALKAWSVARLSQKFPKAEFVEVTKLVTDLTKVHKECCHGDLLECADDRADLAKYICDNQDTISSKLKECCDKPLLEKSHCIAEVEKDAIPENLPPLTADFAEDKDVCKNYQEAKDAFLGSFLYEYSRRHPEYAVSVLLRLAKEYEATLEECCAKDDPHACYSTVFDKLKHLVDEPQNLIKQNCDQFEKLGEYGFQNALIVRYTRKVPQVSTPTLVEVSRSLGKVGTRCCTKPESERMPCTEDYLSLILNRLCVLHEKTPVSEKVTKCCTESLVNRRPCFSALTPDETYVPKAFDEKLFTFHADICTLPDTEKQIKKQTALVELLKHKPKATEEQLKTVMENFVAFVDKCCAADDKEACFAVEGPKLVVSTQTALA

Experiments:
Test in all cases: fluorescence anisotropy
[1] = target: T1, MTH1203 KHa-b (Methanothermobacter thermautotrophicus delta H) (UniProt O27271); conditions: 20 mM Tris pH 8.0, 1 M NaCl, 5 nM 5'-fluorescein RNA; temperature not stated; recombinant protein; residues 3-136; protein details: N-terminal His6; label: 5' fluorescein
T1 sequence (looked up): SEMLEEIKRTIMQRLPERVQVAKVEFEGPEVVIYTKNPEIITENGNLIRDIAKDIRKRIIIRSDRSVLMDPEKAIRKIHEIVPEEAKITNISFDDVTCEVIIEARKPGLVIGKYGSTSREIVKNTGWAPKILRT

[2] = target: T2, MTH1203 KHa (Methanothermobacter thermautotrophicus delta H) (UniProt O27271); conditions: 20 mM Tris pH 8.0, 1 M NaCl, 5 nM 5'-fluorescein RNA; temperature not stated; recombinant protein; residues 3-68; protein details: N-terminal His6; label: 5' fluorescein
T2 sequence (looked up): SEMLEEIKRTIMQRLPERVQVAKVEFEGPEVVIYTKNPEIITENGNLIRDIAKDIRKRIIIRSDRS

[3] = target: T3, MTH1203 KHb (Methanothermobacter thermautotrophicus delta H) (UniProt O27271); conditions: 20 mM Tris pH 8.0, 1 M NaCl, 5 nM 5'-fluorescein RNA; temperature not stated; recombinant protein; residues 72-136; protein details: N-terminal His6; label: 5' fluorescein
T3 sequence (looked up): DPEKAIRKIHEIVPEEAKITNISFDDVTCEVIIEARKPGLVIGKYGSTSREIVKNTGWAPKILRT

BSA = BSA (UniProt P02769); conditions: 20 mM Tris pH 8.0, 1 M NaCl, 5 nM 5'-fluorescein RNA; temperature not stated; commercial protein; label: 5' fluorescein

Measured: binding result

AAAAAAA [A7]
no binding: [1] | [2] | [3]

UUUUUUU [U7]
no binding: all assays above

GGGGGGG [G7]
no binding: [1] | [2] | [3]

CCCCCCC [C7]
no binding: [1] | [2] | [3]
